## Primary screen of a compound library

Data taken from ChEMBL document CHEMBL3988442, “University of Dundee, Small-Polar-MMV Screening Library” (2021).

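Phenotypic screen: M. tuberculosis growth, cholesterol and DPPC medium, 4 days; the read-out is not stated. Tested at 50 µM. The record gives no direction; compounds that gave an IC50 in retests scored well above the rest, so higher reads as more growth inhibition. Of about 69,000 compounds tested this way, about 370 (0.54%) reached 50% or more in at least one test.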

Values are the deposited “Percent Effect”, in %. How 0% and 100% were set is not recorded. Most values in the screen are low, and negative values occur. The compounds are a random part of those screened. Two or more numbers in one place are separate tests of the same structure; such repeats can differ widely.

| SMILES | Percent Effect |
|---|---|
| `Cc1ccc(CC(=O)N2CCN(CC(C)O)CC2)cn1` (configuration not stated) | -0.9633 |
| `COCCCn1ccc(NCc2ccc(NC(C)=O)cc2)n1` | -3.883 |
| `COc1cccc2c1OCC(NCCCOc1cccnc1)C2` (configuration not stated) | 2.151 |
| `CCC(CC)c1cc(CNC(=O)N2CCC(n3cncn3)CC2)on1` | 10.28 |
| `Cc1noc(C)c1-c1cncc(C2CCCN2Cc2ccncc2)n1` (configuration not stated) | -3.372 |
| `COCCOc1ccc(NC(=O)N2CCCC2c2cccs2)cn1` (configuration not stated) | 25.87 |
| `Cc1ccc(C(=O)N2CCCC(c3cc(C(F)(F)F)[nH]n3)C2)o1` (configuration not stated) | 14 |
| `CC(C)n1ccnc1Cn1ccc2ncccc2c1=O` | -12.35 |
| `COc1cccc2cc(CNCc3ccnc(N4CCOCC4)c3)oc12` | -11.95 |
| `Fc1cnc(N2CCCC3(CCN(Cc4nccs4)C3)C2)nc1` (configuration not stated) | -18.16 |
| `CC(=O)N1CCC2(CC1)CN(C(=O)c1ccc3c(c1)OCO3)C2` | 10.52 |
| `NC(=O)c1ccc(CNCC2CCN(CCO)CC2)cc1` | 2.893 & 2.316 |
| `CCSc1cncc(N2CCC(NC(=O)C3CCCCC3)CC2)n1` | 11.75 |
| `CCOc1ccc(CNC(=O)c2cnc(OC)nc2)cc1` | 25.79 |
| `NC(=O)CNC1(c2ccc(Br)cc2)CCOCC1` | -27.37 |
| `O=C1CCC(=O)c2oc3ccccc3c2N1` | -9.908 |
| `Cc1cc(C)c(CNc2nc3ccccc3cc2CO)c(=O)[nH]1` | 13.76 |
| `CC(C)(C)OC(=O)Cn1cccc(S(=O)(=O)N2CCCC2)c1=O` | -21.88 |
| `CSc1ccc(NCC(=O)NC(=O)NCC(F)(F)F)cc1F` | -24.83 |
| `Cc1ccnn1CC(=O)N1CCCN(C2Cc3ccccc3C2)CC1` | 5.425 & -6.753 |
| `Cc1n[nH]c(C)c1CC(=O)N1CCC(O)(CN2CCOCC2)C1` (configuration not stated) | 2.182 & -16.98 |
| `CCn1ccnc1CN1CCN(C(C)C)CC1C` (configuration not stated) | -17.79 |
| `Cc1nc(CN2CCCC(N(C)CCOCC(F)(F)F)C2)no1` (configuration not stated) | -11.77 |
| `[H][C@@]12CCCN1C[C@H](CCSC)N(Cc1cnn(C=C)c1C)C2` | -8.344 |
| `CCn1nccc1CNC(=O)CCC1CCCC1` | -9.858 |
| `CCOC(=O)CNC(=O)C1OC(c2ccccc2)=NN1C(C)=O` (configuration not stated) | -11.71 |
| `CCn1ncc(CN2CCC(c3ncc(Cl)cc3S(C)(=O)=O)CC2)c1C` | -7.705 & 5.713 |
| `CC(C)N1CCC(c2cc(C(F)(F)F)n3ccnc3n2)CC1` | -21.22 |
| `CC(C)c1nn(C)c(N2CCOCC2)c1CNCc1cscn1` | -0.1514 |
| `CC(C)(CNc1ccc(S(=O)(=O)C(F)F)cc1)N1CCOCC1` | 0.9262 |
| `Cl.N#Cc1ccc(NC(=O)C2CSCN2)cc1` (configuration not stated) | -6.039 |
| `O=C(O)[C@@H]1CN(CC(=O)N2CCCCCC2)C[C@H]1c1ccc(F)cc1` | -4.028 |
| `Cc1ccc(C)c(CS(=O)(=O)CC(=O)NC(C)c2ccc(F)cc2F)c1` (configuration not stated) | -24.81 |
| `O=C(O)C(F)(F)F.O=C([C@H]1CCCO1)N1CCOC2(CCCN(c3ncccc3F)C2)C1` (some centres not stated) | -3.055 & -4.83 |
| `[H][C@@]12CCN(C(C)=O)C[C@]1([H])CCN(C1CCCCC1)C(=O)C2` | -10.72 |
| `CCC(CC)CS(=O)(=O)NC(=O)C1CCCC1` | -19.37 |
| `[H][C@@]12C[C@H](C(=O)N3CCCC3)CN(CC3CC3)[C@]1([H])CCO2` | 9.464 |
| `COc1ccccc1OCc1cc(C(=O)N2CC=CC2C(C)C)n[nH]1` (configuration not stated) | 3.878 |
| `CCSc1cc(C(=O)NC(C)c2cccc(N3CCOC3=O)c2)ccn1` (configuration not stated) | -12.49 |
| `COC(=O)Cc1cccc(NC(=O)Cc2ccon2)c1` | 10.66 |
| `O=C(Cc1csc(-c2ccccc2Cl)n1)NCc1cccc(C(=O)O)c1` | -0.7951 |
| `CC(CNCc1ccc(Br)cc1)Oc1ccccn1.Cl` (configuration not stated) | 19.89 |
| `Cc1ncc(C(=O)N2CCCCC2c2nc3cc(F)ccc3[nH]2)c(O)n1` (configuration not stated) | -11.1 |
| `CN(C)C(=O)COCc1cncc2c1CCN(Cc1ccccc1)C2.O=C(O)C(F)(F)F.O=C(O)C(F)(F)F` | -5.938 |
| `COc1ccccc1C(C)(C)NC(=O)c1ccc(F)c(NC(C)=O)c1` | -9.84 |
| `[H][C@]12CN(S(=O)(=O)c3ccc(C(=O)NCCSCC)cc3)[C@]([H])(CN1)C2` | -16.63 |
| `CN(CC1CC1)c1ccc2ccc(C(=O)NCCN3CCOCC3)cn12` | 18.9 |
| `CCc1nc(C2CCCN2CCc2cccs2)no1` (configuration not stated) | 25.01 |
| `Cc1ccc(CSc2nc(N)cc(NCCC(=O)N3CCCC3)n2)cc1` | 7.066 |
| `COCCN1CCN(Cc2nnc(-c3occc3C)o2)CC1` | 19.19 |
| `O=C(COc1coc(CN2CCCCC2)cc1=O)c1ccc(Cl)cc1` | -17.56 |
| `O=C(c1ccco1)N1CCCC(c2cc(C(F)F)n3ncnc3n2)C1` (configuration not stated) | -12.88 |
| `CCn1ccnc1CN1CCCC(CO)(CCCc2ccccc2)C1` (configuration not stated) | 15.44 |
| `CC(C)Nc1nc(N2CCCC2)nc2c1CN(C)CC2` | -17.47 |
| `COc1cccc(CNCCc2cc(F)cc3c2OCOC3)c1OC` | 1.563 |
| `CC(C)c1nnsc1CNC(=O)C1CCN(C(=O)C2CC2)CC1` | -14.85 |
| `Cc1nn(C(C)C)c(C)c1NC(=O)Nc1cccnc1N1CCCC1` | 0.1371 |
| `O=C(c1ccsc1)N1CCC(Nc2cccnn2)CC1` | 0.3238 |
| `Cc1ccc(-c2n[nH]cc2CNCC2CCc3nnc(C)n3C2)cc1` (configuration not stated) | -12.91 |
| `CN1CC(=O)N(C2CCNCC2)Cc2c(NC3CCC3)ncnc21` | -4.871 |
| `COc1cccc(CNC(=O)c2cc(C)nc(N3CCCCC3)n2)c1` | 31.78 |
| `COc1ccc(CCC(=O)NCc2cc(C)on2)cc1` | -13.06 |
| `CC(=O)N1CCC(C(=O)NCCN2CCCCC2)CC1` | -13.03 |
| `COc1ncccc1CNCc1c(C(C)C)nn(C)c1Cl` | -15.31 |
| `CC(C)CC(NC(=O)c1cc(C2CC2)n[nH]1)c1ncnn1C` (configuration not stated) | -30.93 |
| `c1csc(N2CCN(c3ncnc4sccc34)CC2)n1` | 15.03 |
| `CN1CCN(C(=O)CCc2ccccc2)Cc2cccnc21.O=C(O)C(F)(F)F` | -9.085 |
| `CCn1c(CNCC2CCCN2c2cccnn2)nc2ccccc21` (configuration not stated) | -3.739 |
| `CC(=O)NC(CC(=O)Nc1nc(C)c(C)s1)c1ccccc1` (configuration not stated) | -15.26 |
| `CCCS(=O)(=O)N1CCN(c2cc(-n3cccc3)nc(C)n2)CC1` | 47.16 |
| `Cc1csc(CN(CC2CCCO2)C(=O)c2occc2C)n1` (configuration not stated) | 11.9 |

4 of the entries, repeated:

SMILES,Percent Effect
CN1CCN(C(=O)CCc2ccccc2)Cc2cccnc21.O=C(O)C(F)(F)F,-9.085
CC(CNCc1ccc(Br)cc1)Oc1ccccn1.Cl (configuration not stated),19.89
CCn1ccnc1CN1CCN(C(C)C)CC1C (configuration not stated),-17.79
CC(C)n1ccnc1Cn1ccc2ncccc2c1=O,-12.35